Measured values published in patent publication US9062088B2, “CDK-inhibiting pyrrolopyrimidine carboxamide derivative or pharmaceutically acceptable salt thereof, and pharmaceutical composition containing the same as active ingredient for preventing or treating hepatocellular carcinoma” (SNU R&DB Foundation, priority 2010, dated 2015).
Some results were stated once for a whole list of compounds, not compound by compound.

Tested on: caspase-3 activity in SNU-354 cells
Test: Measurement of caspase-3 activity (Experimental Example 4)
Assay type: cell-based, human
Conditions: concentration not specified in the sentence (5 and 10 μM tested)
Procedure: SNU-354 cells treated with the compounds of Example 1˜Example 6 were lysed with lysis buffer (0.5% triton X-100, 20 mM Tris-HCl (pH 7.5), 2 mM magnesium chloride, 1 mM DTT, 1 mM EGTA, 50 mM β-glycerophosphate, 25 mM sodium fluoride, 1 mM Na3VO4, 2 μg/mL leupeptin, 2 μg/mL pepstatin A, 100 μg/mL phenylmethylsulfonyl fluoride, 1 μg/mL antipain). The protease analysis buffer necessary for the reaction (20 mM HEPES (pH 7.5), 10% glycerol, 2 mM DTT) was mixed with 20 μM Ac-DEVD-AMC (BD Biosciences, CA, USA) and cell lysates, followed by reaction at 37° C. for 1 hour. Upon completion of the reaction, caspase-3 activity was measured at 380 nm of excitation and 460 nm of emission with spectrofluorometer (TECAN, Switzerland) and the results are shown in FIG. 25 and Table 12.

Row | SMILES | caspase-3 activity
1 | NC(=O)c1c(Br)n([C@H]2O[C@@H](COC(=O)c3ccccc3)[C@@H](O)[C@@H]2O)c2ncnc(N)c12 [Example 5, ((2S,3S,4S,5S)-5-(4-amino-6-bromo-5-carbamoyl-7H-pyrrolo[2,3-d]pyrimidin-7-yl)-3,4-dihydroxytetrahydrofuran-2-yl)methyl benzoate] | more than 10
2 | CCC(=O)OC[C@@H]1O[C@H](n2c(Br)c(C(N)=O)c3c(N)ncnc32)[C@@H](O)[C@@H]1O [Example 6, ((2S,3S,4S,5S)-5-(4-amino-6-bromo-5-carbamoyl-7H-pyrrolo[2,3-d]pyrimidin-7-yl)-3,4-dihydroxytetrahydrofuran-2-yl)methyl propionate] | more than 10
